This is an account of results in the supplement of paper PMC6445147.

This is a noisy data set.

To fix the notation:
B1: human tRNA-Pro; a variant is named by its letters at N, in order (parent)
chain: GGCTCGTTGGTCTAGNGGTATGATTCTCGCTTAGGGTGCGAGAGGTCCCGGGTTCNNATCCCGGACGAGCCC

The variants in the series derive from B1. The experiment in a line: tRNA 5' processing efficiency (processed reads / all reads, maximum-likelihood estimate) (fraction); higher = more efficient 5' processing. The conditions noted are these: HEK293T; construct: CMV Pol-II promoter ((+)CMV library, decapped).
With GGCTCGTCGGTCTAGGAGTATGATTCTCGCTTAGGGTGCGAGAGGTCCCGGGTTCAAGTCCCGGACGAGCCC [GAA T8C G17A A58G], the “tRNA 5' processing efficiency” value is 0.5.
With GGCTCGTGGGTCTAGGGGTATGATTCTCGCTTAGGGTGCGAGAGGTCCCGGGTTTAAGTCCCGGACGAGCCC [GAA T8G C55T A58G] the figure was 0.4; with GGCTCGTGGGTCTAGTGGTATGATTCTCGCTTAGGGTGCGAGAGGTCCCGGGTACAATTCCCGGACGAGCCC [TAA T8G T54A A58T], 0.33.
The result for GGCTCGTGGGTCTTGGGGCATGATTCTCGCTTAGGGTGCGAGAGGTCCCGGGTTAAAACCCCGGACGAGCCC [GAA T8G A14T T19C C55A T59C] reads 0.33; that for GGCTCGTTGGTCTAGTGGCATGATTCTCGCTTAGGGTGCGAGAGGTCCCGGGTTCAAATCCCGGACGAGCCC [TAA T19C], 0.25.
The result for GGCTCGTGAGTCTAGAGGTATGATTCTCGCTTAGGGTGCGAGAGGTCCCGGGTGCAAAGCCCGGACGAGCCC [AAA T8G G9A T54G T59G] reads 0.25; that for GGCTCGTCGGTCTATGGGTATGATTCTCGCTTAGGGTGCGAGAGGTCCCGGGCTCAAATCCCGGACGAGCCC [GAA T8C G15T T53C], 0.25.
Take GGCTCGTGGGTCTAGGGGTTTGATTCTCGCTTAGGGTGCGAGAGGTCCCGGGTCCAAGTCCCGGACGAGCCC [GAA T8G A20T T54C A58G]: the “tRNA 5' processing efficiency” value is 0.17.
With GGCTCGTCGGTCTAGGGTCTTGATTCTCGCTTAGGGTGCGAGAGGTCCCGGGGTCAATCCCCGGACGAGCCC [GAA T8C G18T T19C A20T T53G A58T T59C] the figure was 0.33; with GGCTCGTGGGTCTAAGCGAGTGATTCTCGCTTAGGGTGCGAGAGGTCCCGGGTTGAAGGCCCGGACGAGCCC [GAA T8G G15A G17C T19A A20G C55G A58G T59G], 0.13; with GGCTCGTGGGTCTGGAGGTATGATTCTCGCTTAGGGTGCGAGAGGTCCCGGGTTTAAATCCCGGACGAGCCC [AAA T8G A14G C55T], 0.14.
With GGCTCGTTGGTCTAGGGGGTTGATTCTCGCTTAGGGTGCGAGAGGTCCCGGGTTCAAATCCCGGACGAGCCC [GAA T19G A20T] the figure was 0.4; with GGCTCGTTGGTCTAGGGGGATGATTCTCGCTTAGGGTGCGAGAGGTCCCGGGTGTAATTCCCGGACGAGCCC [GAA T19G T54G C55T A58T], 0.4.
With GGCTCGTTGGTCTAGTGGGATGATTCTCGCTTAGGGTGCGAGAGGTCCCGGGCTCAAATCCCGGACGAGCCC [TAA T19G T53C] the figure was 0.25; with GGCTCGTGGGTCTAGGGCTATGATTCTCGCTTAGGGTGCGAGAGGTCCCGGGATCAAATCCCGGACGAGCCC [GAA T8G G18C T53A], 0.17; with GGCTCGTGTGTCTGTGGGGATGATTCTCGCTTAGGGTGCGAGAGGTCCCGGGTTCAAATCCCGGACGAGCCC [GAA T8G G9T A14G G15T T19G], 0.17.
Consider GGCTCGTGGGTCTAGGAGTATGATTCTCGCTTAGGGTGCGAGAGGTCCCGGGTTTAAATCCCGGACGAGCCC [GAA T8G G17A C55T], for which the “tRNA 5' processing efficiency” value was 0.2.
With GGCTCGTCGGTCTAGGCGTATGATTCTCGCTTAGGGTGCGAGAGGTCCCGGGATTAAAACCCGGACGAGCCC [GAA T8C G17C T53A C55T T59A] the figure was 0.5; with GGCTCGTGGGTCTAGGGTTCTGATTCTCGCTTAGGGTGCGAGAGGTCCCGGGTTCAAACCCCGGACGAGCCC [GAA T8G G18T A20C T59C], 0.06; with GGCTCGTTGGTCTAGGGGGTTGATTCTCGCTTAGGGTGCGAGAGGTCCCGGGTACAAATCCCGGACGAGCCC [GAA T19G A20T T54A], 0.33.
With GGCTCGTGAGTCTAGGGGGATGATTCTCGCTTAGGGTGCGAGAGGTCCCGGGTTCAAATCCCGGACGAGCCC [GAA T8G G9A T19G] the figure was 0.2; with GGCTCGTTGGTCTAGAGGTATGATTCTCGCTTAGGGTGCGAGAGGTCCCGGGACCAAATCCCGGACGAGCCC [AAA T53A T54C], 0.33; with GGCTCGTTGGTCTAGAGGTATGATTCTCGCTTAGGGTGCGAGAGGTCCCGGGAGCAAATCCCGGACGAGCCC [AAA T53A T54G], 0.4.
The result for GGCTCGTTGGTCTAGGGGTATGATTCTCGCTTAGGGTGCGAGAGGTCCCGGGATGAAATCCCGGACGAGCCC [GAA T53A C55G] reads 0.13; that for GGCTCGTCGGTCTAGGGATATGATTCTCGCTTAGGGTGCGAGAGGTCCCGGGCGCAAATCCCGGACGAGCCC [GAA T8C G18A T53C T54G], 0.2.
In the case of GGCTCGTGGGTCTGGAAGAGTGATTCTCGCTTAGGGTGCGAGAGGTCCCGGGATCAACTCCCGGACGAGCCC [AAA T8G A14G G17A T19A A20G T53A A58C], the “tRNA 5' processing efficiency” value is 0.25.
With GGCTCGTTGGTCTAGGGGTATGATTCTCGCTTAGGGTGCGAGAGGTCCCGGGCTAAAATCCCGGACGAGCCC [GAA T53C C55A] the figure was 0.33.
Take GGCTCGTGGGTCTACGTTTATGATTCTCGCTTAGGGTGCGAGAGGTCCCGGGTTTAAATCCCGGACGAGCCC [GAA T8G G15C G17T G18T C55T]: the “tRNA 5' processing efficiency” value is 0.11.
With GGCTCGTGGGTCTAGGGGCGTGATTCTCGCTTAGGGTGCGAGAGGTCCCGGGTTCAAACCCCGGACGAGCCC [GAA T8G T19C A20G T59C] the figure was 0.4; with GGCTCGTGGGTCTAGGGGTATGATTCTCGCTTAGGGTGCGAGAGGTCCCGGGTTCAAAGCCCGGACGAGCCC [GAA T8G T59G], 0.2.
With GGCTCGTGGGTCTAGTGGTATGATTCTCGCTTAGGGTGCGAGAGGTCCCGGATTCAAAACCCGGACGAGCCC [TAA T8G G52A T59A] the figure was 0.2.
Regarding GGCTCGTGGGTCTAGGAGTATGATTCTCGCTTAGGGTGCGAGAGGTCCCGGGTTCAAAGCCCGGACGAGCCC [GAA T8G G17A T59G], the “tRNA 5' processing efficiency” value was 0.33.
Turning to GGCTCGTTGGTCTAGCGGGTTGATTCTCGCTTAGGGTGCGAGAGGTCCCGGGTTCAAATCCCGGACGAGCCC [CAA T19G A20T], the “tRNA 5' processing efficiency” value was 0.33.
With GGCTCGTGTGTCTAGGTGTATGATTCTCGCTTAGGGTGCGAGAGGTCCCGGGATCAAATCCCGGACGAGCCC [GAA T8G G9T G17T T53A] the figure was 0.33; with GGCTCGTTGGTCTAGCGGAATGATTCTCGCTTAGGGTGCGAGAGGTCCCGGGTTCAATTCCCGGACGAGCCC [CAA T19A A58T], 0.2.
With GGCTCGTGGGTCTAGGTGTATGATTCTCGCTTAGGGTGCGAGAGGTCCCGGGTTCAAGTCCCGGACGAGCCC [GAA T8G G17T A58G] the figure was 0.33; with GGCTCGTTGGTCTAGCGGAGTGATTCTCGCTTAGGGTGCGAGAGGTCCCGGGTTCAAGTCCCGGACGAGCCC [CAA T19A A20G A58G], 0.2; with GGCTCGTGGGTCTACGAGTATGATTCTCGCTTAGGGTGCGAGAGGTCCCGGGTTCAAATCCCGGACGAGCCC [GAA T8G G15C G17A], 0.33.
